Results are given in words; binding and its absence hold for the method and conditions named. Binding seen in cells or lysates may run through a third protein. Some binding calls cover weakened binding; strength is not graded here. Sequences can lack the tags named with a protein.
Target: AtMTA-NLUC (Arabidopsis) (UniProt O82486)
Experiment: split reporter; Split-LUC imaging; CLUC and NLUC fusions co-infiltrated by Agrobacterium GV3101 into N. benthamiana leaves; 500 uM luciferin, dark for 5 min

Sequences of proteins named here, by UniProt entry; tags and fusion partners are left off.
UniProt O82486: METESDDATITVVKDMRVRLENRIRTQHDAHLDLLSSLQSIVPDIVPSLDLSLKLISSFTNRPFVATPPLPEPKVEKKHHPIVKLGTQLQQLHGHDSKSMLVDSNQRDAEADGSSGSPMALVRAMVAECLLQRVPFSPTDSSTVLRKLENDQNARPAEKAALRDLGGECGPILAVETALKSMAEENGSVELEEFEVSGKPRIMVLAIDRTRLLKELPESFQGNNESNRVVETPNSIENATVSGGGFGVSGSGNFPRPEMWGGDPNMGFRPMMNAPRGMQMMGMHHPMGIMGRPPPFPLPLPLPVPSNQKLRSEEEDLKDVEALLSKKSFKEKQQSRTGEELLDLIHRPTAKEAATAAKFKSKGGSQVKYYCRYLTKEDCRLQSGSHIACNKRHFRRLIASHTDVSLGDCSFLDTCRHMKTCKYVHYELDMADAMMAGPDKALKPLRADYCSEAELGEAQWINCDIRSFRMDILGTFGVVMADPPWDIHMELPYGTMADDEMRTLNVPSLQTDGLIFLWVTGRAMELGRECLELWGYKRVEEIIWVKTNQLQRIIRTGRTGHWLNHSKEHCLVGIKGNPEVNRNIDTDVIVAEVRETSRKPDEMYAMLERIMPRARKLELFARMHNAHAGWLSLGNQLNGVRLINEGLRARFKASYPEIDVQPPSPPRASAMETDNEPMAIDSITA

- binding: binds
B1: AtSET-CLUC (domain or fragment, UniProt Q9C5X4 898-1016)
chain: KRLAFGKSGIHGFGIFAKLPHRAGDMMIEYTGELVRPSIADKREQLIYNSMVGAGTYMFRIDDERVIDATRTGSIAHLINHSCVPNCYSRVITVNGDEHIIIFAKRHIPKWEELTYDYR

Source: paper PMC11900566
